According to the supplement of paper PMC5711842:
Counter-ions that a name gives are not always drawn. Single values of this set are uncertain. Peptide text beside a SMILES is read from it. * marks the point of attachment. Cbz = O=C(OCc1ccccc1)*

What follows are compounds tested on Danio rerio embryo (assay: lowest lethal concentration (of 2, 10, 50 µM tested), 10-36 hpf treatment; higher = less toxic). Conditions: treatment window: 10-36 hpf.

Structure (SMILES) | lowest lethal concentration
C=C1C(=O)O[C@@H]2C[C@@H](C)[C@@H]3C=CC(=O)[C@@]3(C)[C@@H](O)[C@H]12 [Helenalin] | > 50 µM
Nc1ncnc2n[nH]c(Nc3ccc(F)cc3)c12 | > 50 µM
O=C(Nc1cccc(Nc2nccc(Nc3cccc(C(F)(F)F)c3)n2)c1)C1CC1 [Aurora Kinase Inhibitor III] | > 50 µM
CCOC(=O)c1c(C)[nH]c(C=C2C(=O)Nc3ccccc32)c1C [VEGFR2 Kinase Inhibitor I] | > 50 µM
Cc1[nH]c(/C=C2\C(=O)Nc3ccc(S(=O)(=O)N(C)c4cccc(Cl)c4)cc32)c(C)c1C(=O)N1CCN(C)CC1 | > 50 µM
Oc1cccc(-c2nc(N3CCOCC3)c3sccc3n2)c1 [PI 3-Kalpha Inhibitor IV] | 50 µM
O=C(O)c1ccc(CCCc2ccc(OCCc3ccc(F)cc3)cc2)o1 [AMPK Activator] | 50 µM
CCN(CC)CCCCN1c2ccccc2Oc2ccc(Cl)cc21 [Akt Inhibitor X] | > 50 µM
CCC(=O)Nc1ccc2ncnc(Nc3cccc(Br)c3)c2c1 | > 50 µM
CC1(C)C(C=C(Cl)Cl)C1C(=O)OC(C#N)c1cccc(Oc2ccccc2)c1 (stereo not drawn) [Cypermethrin] | > 50 µM
O=C(O)c1ccc(-c2c3nc(c(-c4ccc(C(=O)O)cc4)c4ccc([n-]4)c(-c4ccc(C(=O)O)cc4)c4nc(c(-c5ccc(C(=O)O)cc5)c5ccc2[n-]5)C=C4)C=C3)cc1.[Cl-].[Mn+3] [Mntbap] | > 50 µM
CN/C(=N\c1ccc(C2=NNC(=O)CC2C)cc1)NC#N (stereo not drawn) [Siguazodan] | > 50 µM
O=C1NCCc2[nH]c(-c3ccnc(-c4cnc5ccccc5c4)c3)cc21 [MK-2 Inhibitor III] | > 50 µM
CC(C)(C)c1nc2c3cc[nH]c(=O)c3c3cc(F)ccc3c2[nH]1 [Pyridone 6] | > 50 µM
COc1cc(-c2ccc(=O)[nH]n2)ccc1OC(F)F [Zardaverine] | > 50 µM
CCCCCCCCCCCCCCCC(=O)N[C@H](CN1CCOCC1)[C@H](O)c1ccccc1 (racemic) [DL-PPMP] | > 50 µM
N#CC(C#N)=C(N)/C(C#N)=C/c1ccc(O)cc1 [Tyrphostin AG 112] | > 50 µM
O=[N+]([O-])c1ccc(CNc2nc(NCc3cccc(C(F)(F)F)c3)nc3nc[nH]c23)cc1 [IP3K Inhibitor] | > 50 µM
CC(=O)O/N=C1\C(=O)N(Cc2cc(Cl)ccc2Cl)c2ccc(Cl)cc21 | > 50 µM

Part of the list above, as a markdown table:

| Structure (SMILES) | lowest lethal concentration |
| --- | --- |
| CCOC(=O)c1c(C)[nH]c(C=C2C(=O)Nc3ccccc32)c1C [VEGFR2 Kinase Inhibitor I] | > 50 µM |
| Cc1[nH]c(/C=C2\C(=O)Nc3ccc(S(=O)(=O)N(C)c4cccc(Cl)c4)cc32)c(C)c1C(=O)N1CCN(C)CC1 | > 50 µM |

Additional results follow:

Structure (SMILES) | lowest lethal concentration
c1ccc2c(c1)[I+]c1ccccc1-2 [Diphenyleneiodonium] | > 50 µM
N#Cc1cnc2cnc(NCc3cccnc3)cc2c1Nc1ccc(F)c(Cl)c1 [Tpl2 Kinase Inhibitor] | > 50 µM
Nc1nccc(-c2c(-c3ccc(F)cc3)ncn2C2CCNCC2)n1 | > 50 µM
COC(=O)c1ccc(O)c(NC(=O)COc2ccc(C34CC5CC(CC(C5)C3)C4)cc2)c1 [HIF-1 Inhibitor] | > 50 µM
COc1ccc(C(=O)Nc2sc3c(c2C(N)=O)CCCC3)cc1OC [Flt-3 Inhibitor] | > 50 µM
CC(C)C[C@@H](C=O)NC(=O)[C@H](CC(C)C)NC(=O)[C@H](CC(C)C)NC(=O)OCc1ccccc1 [MG-132] (Cbz-Leu-Leu-Leu-aldehyde) | > 50 µM
O=C(Nc1cc(Cl)cc2c1[nH]c1cnccc12)c1cccnc1 [PS-1145] | > 50 µM
O=C1NC(=O)c2c1c(-c1ccccc1Cl)cc1[nH]c3ccc(O)cc3c21 [Wee1 Inhibitor] | > 50 µM
COC(=O)[C@H](Cc1ccc(C#Cc2ccccc2)cc1)NC(=O)C[C@H]1CCCN(C(=N)N)C1 [Ro 26-4550 trifluoroacetate] | > 50 µM
CN1CCN(CCCN2c3ccccc3Sc3ccc(C(F)(F)F)cc32)CC1 [Trifluoperazine] | > 50 µM
Nc1ccc(C(=O)Nc2cccc(-c3nc(N4CCOCC4)c4oc5ncccc5c4n3)c2)cn1 | > 50 µM
NCCc1c[nH]c2ccc(O)cc12 [Serotonin Hydrochloride] | > 50 µM
CNC(=O)[C@H](Cc1c[nH]c2ccccc12)NC(=O)[C@@H](CC(=O)NO)CC(C)C [Ilomastat] | > 50 µM
COc1cc2ncnc(Nc3ccc(O)c(Br)c3)c2cc1OC [WHI-P154] | > 50 µM
O=C(O)CCc1ccc(NCc2cccc(Oc3ccccc3)c2)cc1 [GW9508] | > 50 µM
COCc1nc2c([nH]1)c(=O)n(C)c(=O)n2CC(C)C [IBMX] | > 50 µM
CC(C)n1nnc2cc(C(=O)O)ccc21 [GPR109b Agonist] | > 50 µM
Cc1cccc(Nc2cc(Cl)nc(SCC(=O)O)n2)c1C | > 50 µM
FC(F)(F)c1ccccc1-n1ccnc1 [TRIM] | > 50 µM
